Reference: the supplement of paper PMC7666118
This is one part of the list.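 How the source made its calls: active = dose-dependent thermal stabilisation significant by F-test of dose-response against flat model at 10% FDR; inactive = not significant.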

Protein sequences, listed by entry. Tags and fused reporters are not part of them. Lines headed by an entry give the natural chain unless they say otherwise; changes in a name come on top.
UniProt O14744, whole entry: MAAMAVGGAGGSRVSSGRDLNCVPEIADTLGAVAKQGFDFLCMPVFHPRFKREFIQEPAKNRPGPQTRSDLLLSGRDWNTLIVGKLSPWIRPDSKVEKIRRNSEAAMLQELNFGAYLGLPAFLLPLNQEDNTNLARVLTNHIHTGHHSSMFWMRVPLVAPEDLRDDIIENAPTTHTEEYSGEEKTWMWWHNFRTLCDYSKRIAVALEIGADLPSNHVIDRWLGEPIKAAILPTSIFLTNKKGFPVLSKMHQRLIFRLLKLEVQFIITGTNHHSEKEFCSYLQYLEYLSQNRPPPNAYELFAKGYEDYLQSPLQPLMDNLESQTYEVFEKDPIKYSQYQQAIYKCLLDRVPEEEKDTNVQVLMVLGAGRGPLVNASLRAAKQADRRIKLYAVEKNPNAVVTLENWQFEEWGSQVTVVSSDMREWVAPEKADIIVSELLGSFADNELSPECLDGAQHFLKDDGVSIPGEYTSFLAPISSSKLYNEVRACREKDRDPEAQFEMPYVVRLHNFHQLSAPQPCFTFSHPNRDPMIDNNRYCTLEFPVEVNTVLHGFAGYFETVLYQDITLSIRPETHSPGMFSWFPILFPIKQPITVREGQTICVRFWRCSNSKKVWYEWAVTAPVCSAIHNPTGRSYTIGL
UniProt Q9Y478: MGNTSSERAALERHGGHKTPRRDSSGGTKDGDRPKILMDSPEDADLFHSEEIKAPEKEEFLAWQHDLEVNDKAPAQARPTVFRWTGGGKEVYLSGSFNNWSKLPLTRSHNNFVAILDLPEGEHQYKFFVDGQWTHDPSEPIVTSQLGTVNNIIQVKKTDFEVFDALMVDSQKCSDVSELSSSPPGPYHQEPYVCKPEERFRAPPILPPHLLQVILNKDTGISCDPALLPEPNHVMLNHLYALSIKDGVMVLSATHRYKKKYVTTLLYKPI
UniProt P62191: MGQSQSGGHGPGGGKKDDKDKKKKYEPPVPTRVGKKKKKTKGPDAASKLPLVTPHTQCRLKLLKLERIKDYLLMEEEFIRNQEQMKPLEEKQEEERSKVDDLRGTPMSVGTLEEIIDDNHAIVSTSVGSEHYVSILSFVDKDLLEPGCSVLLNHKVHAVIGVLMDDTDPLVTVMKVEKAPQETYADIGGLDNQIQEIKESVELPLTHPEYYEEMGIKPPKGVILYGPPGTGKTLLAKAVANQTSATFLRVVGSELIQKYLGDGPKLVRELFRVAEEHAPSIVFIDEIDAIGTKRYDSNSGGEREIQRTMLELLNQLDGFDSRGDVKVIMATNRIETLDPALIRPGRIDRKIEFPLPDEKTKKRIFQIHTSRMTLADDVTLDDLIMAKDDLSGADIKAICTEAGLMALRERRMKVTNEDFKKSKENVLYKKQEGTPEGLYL
UniProt P28070, whole entry: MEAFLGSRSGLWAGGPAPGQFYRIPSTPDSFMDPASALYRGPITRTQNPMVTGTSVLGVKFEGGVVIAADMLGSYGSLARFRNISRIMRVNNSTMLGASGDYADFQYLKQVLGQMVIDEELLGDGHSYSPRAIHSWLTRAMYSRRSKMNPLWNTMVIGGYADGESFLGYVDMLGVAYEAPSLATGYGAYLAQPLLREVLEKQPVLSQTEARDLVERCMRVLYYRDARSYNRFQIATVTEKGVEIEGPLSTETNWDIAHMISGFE
UniProt Q14558: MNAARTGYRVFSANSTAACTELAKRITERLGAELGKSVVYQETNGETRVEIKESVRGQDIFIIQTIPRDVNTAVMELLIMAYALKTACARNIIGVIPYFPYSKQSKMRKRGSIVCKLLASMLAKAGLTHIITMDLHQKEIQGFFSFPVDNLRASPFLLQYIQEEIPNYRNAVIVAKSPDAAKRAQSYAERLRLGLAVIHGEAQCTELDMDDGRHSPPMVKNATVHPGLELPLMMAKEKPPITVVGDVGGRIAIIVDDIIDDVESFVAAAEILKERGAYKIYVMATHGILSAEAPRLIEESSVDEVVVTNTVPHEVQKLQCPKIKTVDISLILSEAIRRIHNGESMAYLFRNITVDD
UniProt Q5T8P6: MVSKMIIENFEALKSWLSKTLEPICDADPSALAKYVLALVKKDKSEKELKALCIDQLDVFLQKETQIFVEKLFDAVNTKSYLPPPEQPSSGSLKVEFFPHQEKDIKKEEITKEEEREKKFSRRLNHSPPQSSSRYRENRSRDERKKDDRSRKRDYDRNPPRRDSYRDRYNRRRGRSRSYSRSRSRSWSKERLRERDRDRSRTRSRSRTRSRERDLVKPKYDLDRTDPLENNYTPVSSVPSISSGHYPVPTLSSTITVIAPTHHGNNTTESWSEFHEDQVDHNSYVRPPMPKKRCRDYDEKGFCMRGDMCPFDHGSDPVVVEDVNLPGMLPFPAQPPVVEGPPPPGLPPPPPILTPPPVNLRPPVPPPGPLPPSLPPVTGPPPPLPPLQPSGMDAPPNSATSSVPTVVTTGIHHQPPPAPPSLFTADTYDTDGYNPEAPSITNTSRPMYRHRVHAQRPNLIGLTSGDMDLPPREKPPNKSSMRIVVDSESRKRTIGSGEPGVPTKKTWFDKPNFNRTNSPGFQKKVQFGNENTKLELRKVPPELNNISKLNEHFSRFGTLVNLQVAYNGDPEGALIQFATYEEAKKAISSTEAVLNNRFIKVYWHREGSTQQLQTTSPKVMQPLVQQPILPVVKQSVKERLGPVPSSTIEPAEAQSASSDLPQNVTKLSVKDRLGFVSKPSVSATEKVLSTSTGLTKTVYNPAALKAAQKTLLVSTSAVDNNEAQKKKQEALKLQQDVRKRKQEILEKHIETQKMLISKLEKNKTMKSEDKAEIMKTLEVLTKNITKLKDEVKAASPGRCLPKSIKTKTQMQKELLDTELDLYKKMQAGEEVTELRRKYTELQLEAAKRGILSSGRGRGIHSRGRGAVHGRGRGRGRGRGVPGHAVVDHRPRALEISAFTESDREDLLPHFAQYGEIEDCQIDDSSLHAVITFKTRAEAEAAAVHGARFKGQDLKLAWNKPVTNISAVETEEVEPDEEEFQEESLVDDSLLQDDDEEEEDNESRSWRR
UniProt Q96EV2: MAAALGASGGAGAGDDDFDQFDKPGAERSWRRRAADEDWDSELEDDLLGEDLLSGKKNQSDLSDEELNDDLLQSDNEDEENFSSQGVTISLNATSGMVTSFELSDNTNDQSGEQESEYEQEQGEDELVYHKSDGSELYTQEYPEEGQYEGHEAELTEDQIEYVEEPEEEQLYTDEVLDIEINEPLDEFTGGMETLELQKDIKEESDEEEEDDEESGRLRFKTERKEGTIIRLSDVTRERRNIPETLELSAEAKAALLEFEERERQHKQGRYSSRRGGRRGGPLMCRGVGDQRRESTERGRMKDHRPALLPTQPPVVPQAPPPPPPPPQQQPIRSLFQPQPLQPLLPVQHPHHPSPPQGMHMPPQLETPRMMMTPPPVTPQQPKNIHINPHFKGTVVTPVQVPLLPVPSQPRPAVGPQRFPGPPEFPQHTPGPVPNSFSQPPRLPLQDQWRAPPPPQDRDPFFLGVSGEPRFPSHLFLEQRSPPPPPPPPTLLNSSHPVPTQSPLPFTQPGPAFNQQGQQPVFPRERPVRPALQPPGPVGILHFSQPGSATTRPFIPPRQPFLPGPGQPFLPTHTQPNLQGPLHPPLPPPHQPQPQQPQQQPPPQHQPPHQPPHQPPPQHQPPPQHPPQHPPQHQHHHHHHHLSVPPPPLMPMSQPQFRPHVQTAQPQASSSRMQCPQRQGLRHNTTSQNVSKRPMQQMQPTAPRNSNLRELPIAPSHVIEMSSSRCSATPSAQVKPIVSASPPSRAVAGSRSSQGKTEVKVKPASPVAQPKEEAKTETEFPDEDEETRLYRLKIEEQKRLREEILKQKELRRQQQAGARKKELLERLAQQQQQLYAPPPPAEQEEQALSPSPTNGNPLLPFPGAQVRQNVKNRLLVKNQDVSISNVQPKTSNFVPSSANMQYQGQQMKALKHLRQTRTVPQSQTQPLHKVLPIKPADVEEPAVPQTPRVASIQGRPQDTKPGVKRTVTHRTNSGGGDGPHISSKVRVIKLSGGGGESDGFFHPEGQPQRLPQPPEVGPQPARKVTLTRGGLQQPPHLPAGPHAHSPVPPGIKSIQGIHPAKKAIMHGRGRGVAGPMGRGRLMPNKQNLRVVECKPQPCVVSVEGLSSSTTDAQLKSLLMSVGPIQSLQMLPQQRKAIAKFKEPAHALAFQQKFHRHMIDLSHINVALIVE
UniProt Q9BT73: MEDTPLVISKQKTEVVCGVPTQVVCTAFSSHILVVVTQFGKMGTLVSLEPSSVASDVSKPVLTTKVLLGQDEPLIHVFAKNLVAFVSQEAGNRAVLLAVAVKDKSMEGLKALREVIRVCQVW
UniProt Q9P2W1: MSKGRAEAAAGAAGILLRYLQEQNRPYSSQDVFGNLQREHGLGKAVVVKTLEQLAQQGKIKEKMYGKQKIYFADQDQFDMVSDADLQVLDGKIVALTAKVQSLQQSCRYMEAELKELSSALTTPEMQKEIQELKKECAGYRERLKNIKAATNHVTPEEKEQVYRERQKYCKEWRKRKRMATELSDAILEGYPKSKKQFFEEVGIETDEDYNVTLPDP
UniProt O95456: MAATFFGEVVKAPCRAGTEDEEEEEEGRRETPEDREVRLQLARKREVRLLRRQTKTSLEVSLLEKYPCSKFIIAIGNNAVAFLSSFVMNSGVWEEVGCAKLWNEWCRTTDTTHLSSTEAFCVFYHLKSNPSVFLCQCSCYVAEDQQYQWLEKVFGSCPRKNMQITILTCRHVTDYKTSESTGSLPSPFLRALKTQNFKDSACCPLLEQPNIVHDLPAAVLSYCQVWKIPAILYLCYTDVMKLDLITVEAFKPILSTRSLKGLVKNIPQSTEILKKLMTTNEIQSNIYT
UniProt P35236: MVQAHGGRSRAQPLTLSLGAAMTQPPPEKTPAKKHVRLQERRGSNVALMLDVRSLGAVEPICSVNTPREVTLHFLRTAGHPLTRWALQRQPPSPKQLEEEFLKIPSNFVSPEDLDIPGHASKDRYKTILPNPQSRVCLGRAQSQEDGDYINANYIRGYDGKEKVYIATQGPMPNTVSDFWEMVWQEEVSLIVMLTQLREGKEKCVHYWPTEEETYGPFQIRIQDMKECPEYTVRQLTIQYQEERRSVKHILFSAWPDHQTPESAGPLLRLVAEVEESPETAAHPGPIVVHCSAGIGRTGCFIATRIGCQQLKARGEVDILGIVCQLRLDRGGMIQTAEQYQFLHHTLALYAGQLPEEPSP
UniProt P40306: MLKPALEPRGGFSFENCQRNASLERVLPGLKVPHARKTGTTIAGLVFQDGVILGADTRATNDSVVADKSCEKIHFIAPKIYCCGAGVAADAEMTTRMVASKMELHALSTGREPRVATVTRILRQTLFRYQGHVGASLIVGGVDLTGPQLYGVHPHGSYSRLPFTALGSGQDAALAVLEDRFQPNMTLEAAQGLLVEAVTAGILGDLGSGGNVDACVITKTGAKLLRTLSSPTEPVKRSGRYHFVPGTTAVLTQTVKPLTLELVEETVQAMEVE
UniProt Q7Z6K3: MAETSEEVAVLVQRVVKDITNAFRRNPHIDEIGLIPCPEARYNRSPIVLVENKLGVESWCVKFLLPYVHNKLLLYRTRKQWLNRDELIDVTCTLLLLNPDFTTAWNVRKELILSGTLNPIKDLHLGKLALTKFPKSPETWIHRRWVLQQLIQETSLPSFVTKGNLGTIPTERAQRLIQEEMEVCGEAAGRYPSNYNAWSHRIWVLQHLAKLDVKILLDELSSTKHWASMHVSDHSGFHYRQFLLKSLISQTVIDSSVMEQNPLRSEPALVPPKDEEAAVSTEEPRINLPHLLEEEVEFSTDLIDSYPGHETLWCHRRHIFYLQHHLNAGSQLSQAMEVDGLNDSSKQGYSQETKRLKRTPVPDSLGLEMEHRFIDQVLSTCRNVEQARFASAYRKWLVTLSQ
UniProt Q86TP1: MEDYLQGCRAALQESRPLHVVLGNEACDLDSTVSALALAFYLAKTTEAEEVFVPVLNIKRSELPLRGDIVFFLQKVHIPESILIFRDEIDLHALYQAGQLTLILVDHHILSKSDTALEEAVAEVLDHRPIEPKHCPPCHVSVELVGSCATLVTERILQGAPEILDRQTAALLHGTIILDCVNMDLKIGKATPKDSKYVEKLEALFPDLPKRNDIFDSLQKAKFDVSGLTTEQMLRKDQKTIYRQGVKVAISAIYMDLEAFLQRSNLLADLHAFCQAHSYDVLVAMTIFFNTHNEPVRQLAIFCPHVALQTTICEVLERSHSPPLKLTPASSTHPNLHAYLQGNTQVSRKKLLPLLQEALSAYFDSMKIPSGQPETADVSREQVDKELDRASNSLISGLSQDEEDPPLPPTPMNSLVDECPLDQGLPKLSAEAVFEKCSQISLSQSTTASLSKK
UniProt Q92930: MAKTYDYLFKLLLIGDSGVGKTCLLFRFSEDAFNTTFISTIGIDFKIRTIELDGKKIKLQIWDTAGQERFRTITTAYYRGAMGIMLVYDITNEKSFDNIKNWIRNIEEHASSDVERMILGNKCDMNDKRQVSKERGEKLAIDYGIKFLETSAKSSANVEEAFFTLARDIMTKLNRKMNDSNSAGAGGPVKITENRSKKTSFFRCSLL

compound: Nc1nc2c(ncn2[C@@H]2O[C@H](COP(=O)(O)OP(=O)(O)OP(=O)(O)O)[C@@H](O)[C@H]2O)c(=O)[nH]1; assay: dose-dependent thermal stabilisation call (2D-TPP, DLPTP, 10% FDR) (binary (1 = stabilised)); higher = stabilised by the compound; details: system: Jurkat gel-filtered lysate; concentration range 1-500 µM
Experimental: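 2D thermal proteome profiling in gel-filtered Jurkat E6.1 lysate (2 mg/ml) treated with NaGTP (0, 1, 10, 100, 500 uM) for 10 min at room temperature, then heated 3 min at one of 12 temperatures (42-63.9 C). Soluble protein was quantified by TMT10 MS. The value is the DLPTP call of the paper: dose-dependent thermal stabilisation over all temperatures at 10% FDR (F-test of a dose-response against a flat model); one experiment, one call per tested protein.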

Row | Target | dose-dependent thermal stabilisation call
1 | PRMT5 (UniProt O14744) | inactive: 0
2 | RAB43 (UniProt Q86YS6) | active: 1
3 | PREPL (UniProt Q4J6C6) | inactive: 0
4 | PRKAB1 (UniProt Q9Y478) | inactive: 0
5 | RAB5C (UniProt P51148) | active: 1
6 | PRKCB (UniProt P05771) | active: 1
7 | PSMA4 (UniProt P25789) | inactive: 0
8 | PSMA1 (UniProt P25786) | inactive: 0
9 | RANBP9 (UniProt Q96S59) | inactive: 0
10 | PRKCSH (UniProt P14314) | inactive: 0
11 | PRPS1 (UniProt P60891) | inactive: 0
12 | RBBP7 (UniProt Q16576) | active: 1
13 | RBM14 (UniProt Q96PK6) | inactive: 0
14 | PSMC2 (UniProt P35998) | inactive: 0
15 | PSMC1 (UniProt P62191) | inactive: 0
16 | PSMB4 (UniProt P28070) | inactive: 0
17 | PSMB9 (UniProt P28065) | inactive: 0
18 | RB1 (UniProt P06400) | inactive: 0
19 | PRPF40A (UniProt O75400) | inactive: 0
20 | PRPSAP1 (UniProt Q14558) | inactive: 0

Two entries picked at random from those above, as already listed:
Row | Target | dose-dependent thermal stabilisation call
13 | RBM14 (UniProt Q96PK6) | inactive: 0
2 | RAB43 (UniProt Q86YS6) | active: 1

Following part.

Row | Target | dose-dependent thermal stabilisation call
21 | RBM26 (UniProt Q5T8P6) | active: 1
22 | RABGAP1L (UniProt Q5R372) | inactive: 0
23 | RARS (UniProt P54136) | inactive: 0
24 | RBM33 (UniProt Q96EV2) | inactive: 0
25 | PSMG3 (UniProt Q9BT73) | inactive: 0
26 | RAP1B (UniProt P61224) | active: 1
27 | PSMC3IP (UniProt Q9P2W1) | inactive: 0
28 | PSMG1 (UniProt O95456) | inactive: 0
29 | PTPN7 (UniProt P35236) | active: 1
30 | PSMB10 (UniProt P40306) | inactive: 0
31 | PRRC1 (UniProt Q96M27) | inactive: 0
32 | PRKDC (UniProt P78527) | inactive: 0
33 | PTAR1 (UniProt Q7Z6K3) | active: 1
34 | PUS3 (UniProt Q9BZE2) | active: 1
35 | PRUNE1 (UniProt Q86TP1) | active: 1
36 | RAB8B (UniProt Q92930) | active: 1
37 | PTPRF (UniProt P10586) | inactive: 0
38 | RBM25 (UniProt P49756) | inactive: 0
39 | PRPF4 (UniProt O43172) | inactive: 0
40 | PSMD4 (UniProt P55036) | inactive: 0
